Laboratory results published in article PMC10238398.
No constants are given. Whether binding was seen depends on the method and setting. Some binding calls cover weakened binding; strength is not graded here.

Amino acid sequences for entries named in this document (tags omitted).
UniProt P30051: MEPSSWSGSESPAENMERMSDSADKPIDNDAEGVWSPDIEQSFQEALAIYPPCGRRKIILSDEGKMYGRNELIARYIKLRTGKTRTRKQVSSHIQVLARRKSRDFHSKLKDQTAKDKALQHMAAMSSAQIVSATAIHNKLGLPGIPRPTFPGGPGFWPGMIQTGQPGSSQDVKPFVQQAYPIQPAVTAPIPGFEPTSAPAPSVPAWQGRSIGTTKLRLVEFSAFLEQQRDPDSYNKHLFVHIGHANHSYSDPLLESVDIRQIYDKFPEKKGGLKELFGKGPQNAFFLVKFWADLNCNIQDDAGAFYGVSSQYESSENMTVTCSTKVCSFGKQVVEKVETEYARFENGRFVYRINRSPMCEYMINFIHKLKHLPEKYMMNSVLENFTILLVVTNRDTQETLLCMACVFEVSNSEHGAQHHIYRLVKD
UniProt P48301: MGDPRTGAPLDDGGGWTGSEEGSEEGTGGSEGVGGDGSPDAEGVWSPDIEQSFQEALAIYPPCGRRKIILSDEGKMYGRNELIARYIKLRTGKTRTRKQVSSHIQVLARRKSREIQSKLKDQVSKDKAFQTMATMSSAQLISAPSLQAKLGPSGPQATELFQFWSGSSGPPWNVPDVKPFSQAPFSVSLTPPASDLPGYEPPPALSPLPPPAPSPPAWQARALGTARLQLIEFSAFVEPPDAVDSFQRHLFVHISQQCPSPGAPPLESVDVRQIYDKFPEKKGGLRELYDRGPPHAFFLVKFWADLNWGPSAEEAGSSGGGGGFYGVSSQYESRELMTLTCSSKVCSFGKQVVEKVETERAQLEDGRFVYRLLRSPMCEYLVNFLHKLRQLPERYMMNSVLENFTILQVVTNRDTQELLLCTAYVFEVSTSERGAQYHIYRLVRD
UniProt P70210: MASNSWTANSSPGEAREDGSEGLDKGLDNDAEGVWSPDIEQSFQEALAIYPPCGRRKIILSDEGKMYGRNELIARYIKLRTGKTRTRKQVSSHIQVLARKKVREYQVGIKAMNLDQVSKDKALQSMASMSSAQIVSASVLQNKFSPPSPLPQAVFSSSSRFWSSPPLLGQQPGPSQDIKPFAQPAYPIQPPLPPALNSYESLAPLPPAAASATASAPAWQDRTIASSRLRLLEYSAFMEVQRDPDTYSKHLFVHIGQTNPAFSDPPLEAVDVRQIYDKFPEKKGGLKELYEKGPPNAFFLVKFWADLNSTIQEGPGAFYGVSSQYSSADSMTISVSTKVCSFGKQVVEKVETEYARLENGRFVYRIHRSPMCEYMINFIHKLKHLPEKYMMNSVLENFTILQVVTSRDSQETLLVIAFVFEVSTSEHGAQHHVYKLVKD
UniProt Q62296: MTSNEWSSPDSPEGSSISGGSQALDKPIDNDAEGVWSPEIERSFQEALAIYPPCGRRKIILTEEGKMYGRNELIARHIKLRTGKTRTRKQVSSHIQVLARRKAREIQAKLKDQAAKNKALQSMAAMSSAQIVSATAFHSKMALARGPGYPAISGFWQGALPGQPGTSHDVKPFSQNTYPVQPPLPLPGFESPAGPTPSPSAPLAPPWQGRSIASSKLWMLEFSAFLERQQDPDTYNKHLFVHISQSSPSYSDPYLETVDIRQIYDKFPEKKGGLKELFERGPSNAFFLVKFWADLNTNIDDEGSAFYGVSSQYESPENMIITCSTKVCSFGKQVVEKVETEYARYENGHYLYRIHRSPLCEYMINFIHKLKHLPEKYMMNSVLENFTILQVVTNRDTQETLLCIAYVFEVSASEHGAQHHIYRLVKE

Biological target: T1, myocardin-related transcription factor A (MRTF-A) (mouse (endogenous in primary murine renal fibroblasts)) (UniProt Q8K4J6)
T1 sequence: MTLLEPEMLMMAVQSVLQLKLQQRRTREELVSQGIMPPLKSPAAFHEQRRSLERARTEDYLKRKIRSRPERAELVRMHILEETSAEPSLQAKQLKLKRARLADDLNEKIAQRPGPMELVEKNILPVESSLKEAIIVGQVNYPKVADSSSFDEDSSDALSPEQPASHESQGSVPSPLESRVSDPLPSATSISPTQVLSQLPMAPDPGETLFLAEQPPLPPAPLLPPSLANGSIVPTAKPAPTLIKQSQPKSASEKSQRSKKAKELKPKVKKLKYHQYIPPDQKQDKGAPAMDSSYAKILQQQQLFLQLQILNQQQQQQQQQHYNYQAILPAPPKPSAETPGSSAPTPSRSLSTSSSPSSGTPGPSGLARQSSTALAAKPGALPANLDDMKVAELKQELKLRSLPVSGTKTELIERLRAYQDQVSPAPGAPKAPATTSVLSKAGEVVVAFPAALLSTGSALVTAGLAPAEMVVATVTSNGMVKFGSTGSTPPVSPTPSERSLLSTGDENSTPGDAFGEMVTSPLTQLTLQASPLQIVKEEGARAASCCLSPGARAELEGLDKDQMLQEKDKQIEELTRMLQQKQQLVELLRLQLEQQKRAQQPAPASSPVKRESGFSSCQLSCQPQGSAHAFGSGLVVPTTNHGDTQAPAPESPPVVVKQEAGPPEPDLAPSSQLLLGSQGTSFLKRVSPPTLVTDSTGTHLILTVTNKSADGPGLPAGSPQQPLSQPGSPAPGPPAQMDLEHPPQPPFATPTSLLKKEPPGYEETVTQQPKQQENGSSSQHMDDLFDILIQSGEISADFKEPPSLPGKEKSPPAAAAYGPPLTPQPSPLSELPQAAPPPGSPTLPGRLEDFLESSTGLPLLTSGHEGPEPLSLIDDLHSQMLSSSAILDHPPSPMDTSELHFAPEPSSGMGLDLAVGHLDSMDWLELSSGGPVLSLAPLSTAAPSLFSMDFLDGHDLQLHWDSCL
Assay: Re-ChIP; sequential chromatin immunoprecipitation with the indicated antibodies on formaldehyde cross-linked chromatin of primary renal fibroblasts treated with TGF-β (2 ng/ml) for 24 h; Zeb1 promoter read out

| binding | Substance |
| --- | --- |
| binds | TEA domain transcription factor 1 (TEAD1) (from UniProt P30051 1-426) |
| no binding | TEAD2 (from UniProt P48301 1-445) |
| no binding | TEAD3 (from UniProt P70210 1-439) |
| no binding | TEAD4 (from UniProt Q62296 1-427) |
